For the assay, the target named is FLAG-tagged-SDC2 (Syndecan-2) (UniProt P34741). In words: affinity purification with mass spectrometry; HEK293T transfected with control or FLAG-tagged-SDC2 plasmid; extracts incubated with anti-FLAG magnetic beads for 12 h; precipitate separated by SDS-PAGE, bands cut and analysed by LC-MS.

Amino acid sequences for entries named in this document (tags omitted). A change or cut given only in a name is not applied to a line headed by its entry. Residues count along the entry.
UniProt P34741, residues 19-201: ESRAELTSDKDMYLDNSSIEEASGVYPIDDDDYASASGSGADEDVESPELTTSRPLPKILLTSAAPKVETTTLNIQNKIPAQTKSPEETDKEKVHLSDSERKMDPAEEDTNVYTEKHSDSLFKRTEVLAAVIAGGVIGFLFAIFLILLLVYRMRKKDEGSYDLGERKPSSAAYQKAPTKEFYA
UniProt P09038: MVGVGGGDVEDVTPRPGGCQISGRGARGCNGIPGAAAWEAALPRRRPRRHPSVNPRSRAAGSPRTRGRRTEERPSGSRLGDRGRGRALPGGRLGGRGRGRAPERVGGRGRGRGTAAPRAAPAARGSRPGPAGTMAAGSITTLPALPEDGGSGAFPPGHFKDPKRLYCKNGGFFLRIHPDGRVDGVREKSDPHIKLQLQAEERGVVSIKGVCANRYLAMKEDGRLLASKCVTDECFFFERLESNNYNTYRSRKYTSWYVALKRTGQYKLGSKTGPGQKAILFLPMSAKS

No constants are given. Whether binding was seen depends on the method and setting. Binding seen in cells or lysates may run through a third protein. A yes stands for co-enrichment or nearness to the bait. Other partners may have been found. Sequences can lack the tags named with a protein.

We go through two molecules from paper PMC10367555.

Regarding “FGF2 (Fibroblast growth factor 2), found with FLAG-SDC2 in HEK293T (from UniProt P09038) (ligand)”, the binding entry was “binds”.

B1: PDK1 (3-Phosphoinositide dependent protein kinase 1), found with FLAG-SDC2 in HEK293T (protein, UniProt O15530 1-556)
chain: MARTTSQLYDAVPIQSSVVLCSCPSPSMVRTQTESSTPPGIPGGSRQGPAMDGTAAEPRPGAGSLQHAQPPPQPRKKRPEDFKFGKILGEGSFSTVVLARELATSREYAIKILEKRHIIKENKVPYVTRERDVMSRLDHPFFVKLYFTFQDDEKLYFGLSYAKNGELLKYIRKIGSFDETCTRFYTAEIVSALEYLHGKGIIHRDLKPENILLNEDMHIQITDFGTAKVLSPESKQARANSFVGTAQYVSPELLTEKSACKSSDLWALGCIIYQLVAGLPPFRAGNEYLIFQKIIKLEYDFPEKFFPKARDLVEKLLVLDATKRLGCEEMEGYGPLKAHPFFESVTWENLHQQTPPKLTAYLPAMSEDDEDCYGNYDNLLSQFGCMQVSSSSSSHSLSASDTGLPQRSGSNIEQYIHDLDSNSFELDLQFSEDEKRLLLEKQAGGNPWHQFVENNLILKMGPVDKRKGLFARRRQLLLTEGPHLYYVDPVNKVLKGEIPWSQELRPEAKNFKTFFVHTPNRTYYLMDPSGNAHKWCRKIQEVWRQRYQSHPDAAVQ
Regarding B1, the binding entry is “binds”.
